At least one structure is not confirmed: it was looked up by name or label, or the drawing left a doubt.
Legend:
[1] = tested on: infrarenal abdominal aorta; test: Elastase-induced abdominal aortic aneurysm model in rats; type: in vivo, Wistar rats; conditions: 60 mg/kg/day, day 7; saline control 5 of the 6
Description: Male Wistar rats (350-400 g) were subjected to perfusion of an isolated segment of the infrarenal abdominal aorta with 50 units of porcine pancreatic elastase, using the method described by Anidjar. et al. (Anidjar, S, Salzmann, J L, Generic, D, Lagneau, P, Camilleri, J P, and Michel, J B, “Elastase induced experimental aneurysms in rats,” Circulation 82:973-981 (1990); Halpern et al. (Halpern, V J. Liao, Nackman, G B, Gandhi, R H, Irizarry, E, Scholes, J V, Ramey, W G, and Tilson, M D, “The elastase infusion model of experimental aortic aneurysms: Synchrony of induction of endogenous protinases with matrix destruction and inflammatory cell response,” J. Vasc. Surg. […] Surg 23:336-346 (1996)). This method is an accepted model for experimental induction of abdominal aortic aneurysms. […] Aortic diameter (AD) was measured with microcalipers before and after elastase perfusion, and just prior to sacrifice on day 7. Abdominal aortic aneurysms were defined as an increase in final AD to at least twice that measured before perfusion (≥ 100% increase). […] Tissues from the remaining animals were extracted, normalized to total protein, and analyzed by gelatin substrate zymography as described (Thompson et al. 1995; Halpern et al. 1994; Petrinec 1996). […]

[2] = tested on: Porcine coronary stent model; test: Porcine studies with rapamycin-coated stents (neointimal area, inflammation score); type: in vivo; conditions: porcine and rabbit models, nonerodible polymeric stent coating, 35-430 ug/5-18 mm coronary stent, maximal at about 28-30 days
[3] = tested on: monocyte chemotactic protein (MCP-1); test: MCP-1 levels in the vascular wall after delivery from a stent (FIG. 75); type: in vivo; conditions: delivered from a stent
[4] = Liquid formulations of sirolimus and analogs: drug concentration by liquid chromatography, visual observation; type: physicochemical

SMILES	abdominal aortic aneurysms (at least 100% increase in aortic diameter) [1]	peak reduction in neointimal hyperplasia [2]	reduction of monocyte chemotactic protein (MCP-1) levels in the vascular wall [3]	dilution with water at which precipitation starts ([4]; 4 mg/ml formulation with PEG 200)	sirolimus concentration in the final solution (HPLC) ([4]; Vitamin E TPGS, water, ethanol less than two percent)
C[C@H]1c2cccc(O)c2C(=O)C2=C(O)[C@]3(O)C(=O)C(C(N)=O)=C(O)[C@@H](N(C)C)[C@@H]3[C@@H](O)[C@@H]21 [Dox, doxycycline]	no abdominal aortic aneurysms were observed				
CO[C@H]1C[C@@H]2CC[C@@H](C)[C@@](O)(O2)C(=O)C(=O)N2CCCC[C@H]2C(=O)O[C@H]([C@H](C)C[C@@H]2CC[C@@H](O)[C@H](OC)C2)CC(=O)[C@H](C)/C=C(\C)[C@@H](O)[C@@H](OC)C(=O)[C@H](C)C[C@H](C)/C=C/C=C/C=C/1C [rapamycin]		fifty to fifty-five	highly effective	five to ten	15 mg/mL

From patent US20070026042A1, “System for treating aneurysmal disease” (priority 2005, published 2007)
